Measurements taken from patent US20120088664A1, “Antifungal 1,2,4-triazolyl derivatives having a 5-sulfur subtituent” (BASF SE, priority 2009, published 2012).
Some of these results come from one statement about several compounds together.

Tests used:
[1] = test system: Puccinia recondita; assay: Preventative control of brown rust on wheat caused by Puccinia recondita (greenhouse test); format: in vivo; details: 300 ppm active compound, wheat seedlings sprayed to run-off, inoculated next day, 24 h humid chamber then 6 days greenhouse; untreated plants 60% infected
[2] = test system: Septoria tritici; assay: Preventative control of leaf blotch on wheat caused by Septoria tritici (greenhouse test); format: in vivo; details: 300 ppm active compound, wheat seedlings sprayed to run-off, inoculated next day, assessed after 4 weeks; untreated plants 90% infected

| Compound | infection (fungal attack on the leaves visually assessed as % diseased leaf area) [1] | infection (fungal attack on the leaves visually assessed as % diseased leaf area) [2] |
| --- | --- | --- |
| CC(C)(C)C(O)(CCc1ccc(C(F)(F)F)cc1)Cn1nc[nH]c1=S (stereo not shown) [Example 6, 1-(2-Hydroxy-3,3-dimethyl-2-(4-(trifluoromethyl)phenethyl)butyl)-1H-1,2,4-triazole-5(4H)-thione] | at most 15% | at most 10% |
| CC(C)(C)C(O)(CCc1ccc(Cl)c(Cl)c1)Cn1nc[nH]c1=S (stereo not shown) [Example 3, 1-(2-(3,4-Dichlorophenethyl)-2-hydroxy-3,3-dimethylbutyl)-1H-1,2,4-triazole-5(4H)-thione] | at most 15% | at most 10% |
